The values that follow come from PMC4364741.

Protein sequences, listed by entry. Tags and fused reporters are not part of them. Lines headed by an entry give the natural chain unless they say otherwise; changes in a name come on top. Residues count along the entry.
UniProt P26022, residues 18-381: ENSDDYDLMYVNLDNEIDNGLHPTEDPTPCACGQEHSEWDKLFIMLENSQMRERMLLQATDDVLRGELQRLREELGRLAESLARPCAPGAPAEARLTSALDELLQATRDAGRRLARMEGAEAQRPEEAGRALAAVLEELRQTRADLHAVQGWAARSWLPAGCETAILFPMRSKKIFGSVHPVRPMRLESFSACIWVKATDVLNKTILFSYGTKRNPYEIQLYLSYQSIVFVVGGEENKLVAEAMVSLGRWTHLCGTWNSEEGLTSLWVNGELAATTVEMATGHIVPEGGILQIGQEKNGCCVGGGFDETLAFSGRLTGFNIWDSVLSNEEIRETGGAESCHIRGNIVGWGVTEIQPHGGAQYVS
UniProt Q9JZJ0: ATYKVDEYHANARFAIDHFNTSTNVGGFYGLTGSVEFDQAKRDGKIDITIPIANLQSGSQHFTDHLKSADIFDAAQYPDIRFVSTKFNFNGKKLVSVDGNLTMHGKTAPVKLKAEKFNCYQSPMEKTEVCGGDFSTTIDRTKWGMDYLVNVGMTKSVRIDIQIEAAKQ
UniProt Q9JXE1: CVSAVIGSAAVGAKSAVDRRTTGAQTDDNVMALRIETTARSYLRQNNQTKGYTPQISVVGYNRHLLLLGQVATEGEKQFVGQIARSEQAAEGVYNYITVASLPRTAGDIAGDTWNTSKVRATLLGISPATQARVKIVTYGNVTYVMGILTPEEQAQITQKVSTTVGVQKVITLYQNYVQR
UniProt P48759, residues 18-381: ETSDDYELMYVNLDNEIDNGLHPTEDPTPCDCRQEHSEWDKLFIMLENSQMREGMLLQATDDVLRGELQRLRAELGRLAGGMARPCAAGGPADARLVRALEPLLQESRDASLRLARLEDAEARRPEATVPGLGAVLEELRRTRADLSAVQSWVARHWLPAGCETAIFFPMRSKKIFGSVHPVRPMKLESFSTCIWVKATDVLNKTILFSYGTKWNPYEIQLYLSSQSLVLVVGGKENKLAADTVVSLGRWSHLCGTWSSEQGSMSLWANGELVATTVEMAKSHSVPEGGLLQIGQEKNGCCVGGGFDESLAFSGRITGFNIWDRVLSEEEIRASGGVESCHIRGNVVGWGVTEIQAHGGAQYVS
UniProt P02743, residues 20-223: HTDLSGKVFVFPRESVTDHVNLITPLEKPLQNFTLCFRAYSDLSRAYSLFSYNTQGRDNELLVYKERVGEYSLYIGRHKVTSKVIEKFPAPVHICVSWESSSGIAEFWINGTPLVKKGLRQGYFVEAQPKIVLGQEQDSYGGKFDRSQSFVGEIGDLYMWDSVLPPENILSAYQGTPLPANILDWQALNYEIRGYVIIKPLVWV

Assay [1] addresses Recombinant human long pentraxin 3 (PTX3) (human) (UniProt P26022). Nature of the assay: ELISA; plates coated with human PTX3 (1 μg/well), incubated with Nm antigens (1 μg/well), revealed with specific polyclonal antibodies (1:1000) and HRP-linked secondary antibody; A450; both purified. In general terms: An ELISA detects its analyte on a solid surface through an enzyme-linked reagent.

Assay [2] deals with Genome-derived Neisserial antigen GNA1030 (Neisseria meningitidis) (UniProt Q9JZJ0). Nature of the assay: ELISA; plastic wells coated with the recombinant Nm proteins (1 μg/well), incubated with human or murine PTX3, human CRP or SAP (22 pmoles) for 1 h at 37°C, then antibodies; A450; both purified.
Assay [3] deals with Genome-derived Neisserial antigen GNA2091 (Neisseria meningitidis) (UniProt Q9JXE1). The description is as above.
Assay [4] addresses Genome-derived Neisserial antigen GNA1030 (Neisseria meningitidis) (UniProt Q9JZJ0). The assay can be described thus: ELISA; microtiter plate; N-terminal or C-terminal PTX3 domains (22 pmoles) on coated GNA0667, GNA1030 and GNA2091; percentage of binding compared to full length PTX3; both purified.
Assay [5] has as its target Genome-derived Neisserial antigen GNA2091 (Neisseria meningitidis) (UniProt Q9JXE1). Described as above.
In assay [6] the target is T1, Genome-derived Neisserial antigen GNA0667 (Neisseria meningitidis) (UniProt Q9K0E2).
T1 sequence: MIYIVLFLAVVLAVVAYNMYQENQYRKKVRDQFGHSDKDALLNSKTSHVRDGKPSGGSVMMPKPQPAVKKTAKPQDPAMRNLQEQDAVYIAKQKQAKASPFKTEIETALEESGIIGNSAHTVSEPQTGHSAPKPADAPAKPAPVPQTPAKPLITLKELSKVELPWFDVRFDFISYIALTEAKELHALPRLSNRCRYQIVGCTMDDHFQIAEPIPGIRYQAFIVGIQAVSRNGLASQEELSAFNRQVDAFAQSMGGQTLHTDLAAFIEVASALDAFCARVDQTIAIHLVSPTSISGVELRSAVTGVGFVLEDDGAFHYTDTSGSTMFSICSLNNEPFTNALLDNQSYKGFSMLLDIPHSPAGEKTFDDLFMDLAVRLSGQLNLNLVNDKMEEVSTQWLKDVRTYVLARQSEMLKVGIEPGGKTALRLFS
The description is as above.

The target of assay [7] is Genome-derived Neisserial antigen GNA1030 (Neisseria meningitidis) (UniProt Q9JZJ0). The assay can be described thus: ELISA; microtiter plate; PTX3 on coated Nm antigens in the presence or not of calcium (10 mM EGTA); both purified.
Assay [8] addresses Genome-derived Neisserial antigen GNA2091 (Neisseria meningitidis) (UniProt Q9JXE1). Described as above.
Assay [9] addresses Genome-derived Neisserial antigen GNA1030 (Neisseria meningitidis) (UniProt Q9JZJ0). The assay can be described thus: ELISA; microtiter plate; different doses of bPTX3 on coated GNA0667, GNA1030 and GNA2091 (1 μg/well); both purified.
The target in assay [10] is Genome-derived Neisserial antigen GNA2091 (Neisseria meningitidis) (UniProt Q9JXE1). Described as above.

Results are given in words; binding and its absence hold for the method and conditions named. Binding calls can cover weak binding; strength is not graded here.

Turning to “Genome-derived Neisserial antigen GNA2091 (from UniProt Q9JXE1)”, the binding result in assay [1] is “binds”.

Consider “Genome-derived Neisserial antigen GNA1030 (from UniProt Q9JZJ0)”, for which the binding result in assay [1] is recorded as “binds”.

In the case of “Recombinant murine PTX3 (from UniProt P48759 18-381)”, the binding entry in assay [2] and in assay [3] was “binds” throughout.

Take “Recombinant human long pentraxin 3 (PTX3) (from UniProt P26022 18-381)”: the binding entry in assay [4], in assay [5], in assay [2] and in assay [3] was “binds” in each case.

Consider “Recombinant human PTX3 N-terminal domain (N-PTX3) (domain or fragment)”, for which, in assay [6], the binding entry is given as “binds”.

Turning to “Biotinylated human PTX3 (bPTX3) (from UniProt P26022 18-381)”, the binding result in assay [7], in [8], in assay [9] and in [10] was “binds” each time.

As to “Recombinant human PTX3 C-terminal domain (C-PTX3) (domain or fragment)”, the binding result in assay [6] was “no binding (tested: 22 pmoles)”.

Consider “Serum amyloid P component (from UniProt P02743 20-223)”, for which the binding result in assay [2] and in assay [3] was “binds” in each case.
